Laboratory results published in PMC12146848, “Deciphering meiotic chromatin organization by SYCP3”.

Target: T1, SYCP3 (Mus musculus) (UniProt P70281)
T1 sequence: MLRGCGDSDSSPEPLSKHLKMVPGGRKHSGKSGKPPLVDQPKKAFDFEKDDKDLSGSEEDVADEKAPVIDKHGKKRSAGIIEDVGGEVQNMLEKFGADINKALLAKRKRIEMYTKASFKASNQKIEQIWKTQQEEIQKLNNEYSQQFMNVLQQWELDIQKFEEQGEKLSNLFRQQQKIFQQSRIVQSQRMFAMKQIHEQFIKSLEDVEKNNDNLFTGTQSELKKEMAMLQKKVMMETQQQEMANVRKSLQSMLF
Assay: EMSA
Settings: Beyotime GS008 Gel-Shift binding buffer (composition and pH not given), 15 ul, 1 h at room temperature, 4% polyacrylamide gel, recombinant protein, protein details: C-terminal 6xHis, label: 3' biotin-dUTP added by TdT on both strands

Sequence: ACAGTCCTGGTGATTGAACTCCGGCCCTGGGCATGCCAGGCGAGCACTCCACTCTTTGAG (double strand) [Probe-5mC]
- binding result (significantly weakened vs unmethylated probe, all cytosines 5-methyl-dC on both strands): binds more weakly

Sequence: ACAGTCCTGGTGATTGAACTCCGGCCCTGGGCATGCCAGGCGAGCACTCCACTCTTTGAG (double strand) [WT Probe]
- binding result (with 1,6-hexanediol, modest reduction): binds more weakly

Sequence: CGAACCAATCGACGAAAACAAAACTCAAATCACAACAATGAGACTTCTCCAAAGAAATCT (double strand) [Mut probe']
- binding result (stronger than WT Probe'): binds

Sequence: TAGGTTGGCTAGTAGGGGTGGGGTCTGGGCTGTGGTGGCAGAGTCCTCTTGGGAGGGCTC (double strand) [WT Probe']
- binding result: binds

The comparison behind a weaker result is the experiment's own reference, which may not be listed here. Protein sequences can lack the tags named with them. Construct, isoform or probe ends are uncertain for at least one entry. At least one verdict rests on a figure or table, not on a statement of the authors.
